This is a selection; strong and weak results do not stand in their true shares. For part of these data: At the low end of the ranking the order means little. This is one part of the list. For part of these data: Construct or isoform of the protein are uncertain.
Columns and labels:
Assay in all cases: DAPPL (digital affinity profiling via proximity ligation, sequencing)
Settings in all cases: 10 mM Tris-HCl pH 7.5, 50 mM NaCl, 1 mM DTT, 4% glycerol, room temperature, 30 min; GST-TFs on glutathione beads, 16-mer random dsDNA library, 0.1% …; high values mean tight binding; double strand, one strand shown; scale: fold enrichment (6-mer frequency, TF over GST control)
[1] = target: T1, ERG (UniProt P11308)
T1 sequence: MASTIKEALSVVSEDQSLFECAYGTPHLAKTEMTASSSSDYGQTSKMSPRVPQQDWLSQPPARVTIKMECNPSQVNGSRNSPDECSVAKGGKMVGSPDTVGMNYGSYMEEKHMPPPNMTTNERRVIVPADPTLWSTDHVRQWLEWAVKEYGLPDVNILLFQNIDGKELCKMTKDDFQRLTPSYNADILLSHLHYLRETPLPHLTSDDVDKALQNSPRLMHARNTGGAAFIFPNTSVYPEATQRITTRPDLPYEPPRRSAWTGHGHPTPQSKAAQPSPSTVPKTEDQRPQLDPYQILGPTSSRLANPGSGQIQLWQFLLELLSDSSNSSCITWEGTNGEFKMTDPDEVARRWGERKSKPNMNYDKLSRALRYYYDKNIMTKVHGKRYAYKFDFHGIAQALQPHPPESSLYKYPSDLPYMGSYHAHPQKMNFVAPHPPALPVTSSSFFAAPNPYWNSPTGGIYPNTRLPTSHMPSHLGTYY

Sequences of proteins named here, by UniProt entry; tags and fusion partners are left off. A change or cut given only in a name is not applied to a line headed by its entry.
UniProt P50549: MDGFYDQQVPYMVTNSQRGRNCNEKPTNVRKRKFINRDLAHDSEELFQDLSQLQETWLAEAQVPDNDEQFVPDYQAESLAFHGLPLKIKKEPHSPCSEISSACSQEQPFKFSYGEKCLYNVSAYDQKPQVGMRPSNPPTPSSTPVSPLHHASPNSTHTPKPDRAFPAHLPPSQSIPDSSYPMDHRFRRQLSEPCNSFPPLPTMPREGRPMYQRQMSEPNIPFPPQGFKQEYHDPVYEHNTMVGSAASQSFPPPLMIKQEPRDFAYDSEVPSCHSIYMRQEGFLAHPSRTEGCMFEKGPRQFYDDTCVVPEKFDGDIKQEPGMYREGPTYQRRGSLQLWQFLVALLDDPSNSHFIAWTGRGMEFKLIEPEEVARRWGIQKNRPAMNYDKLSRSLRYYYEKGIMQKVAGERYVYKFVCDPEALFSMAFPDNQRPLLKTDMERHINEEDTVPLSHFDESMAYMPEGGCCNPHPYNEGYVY
UniProt P32519: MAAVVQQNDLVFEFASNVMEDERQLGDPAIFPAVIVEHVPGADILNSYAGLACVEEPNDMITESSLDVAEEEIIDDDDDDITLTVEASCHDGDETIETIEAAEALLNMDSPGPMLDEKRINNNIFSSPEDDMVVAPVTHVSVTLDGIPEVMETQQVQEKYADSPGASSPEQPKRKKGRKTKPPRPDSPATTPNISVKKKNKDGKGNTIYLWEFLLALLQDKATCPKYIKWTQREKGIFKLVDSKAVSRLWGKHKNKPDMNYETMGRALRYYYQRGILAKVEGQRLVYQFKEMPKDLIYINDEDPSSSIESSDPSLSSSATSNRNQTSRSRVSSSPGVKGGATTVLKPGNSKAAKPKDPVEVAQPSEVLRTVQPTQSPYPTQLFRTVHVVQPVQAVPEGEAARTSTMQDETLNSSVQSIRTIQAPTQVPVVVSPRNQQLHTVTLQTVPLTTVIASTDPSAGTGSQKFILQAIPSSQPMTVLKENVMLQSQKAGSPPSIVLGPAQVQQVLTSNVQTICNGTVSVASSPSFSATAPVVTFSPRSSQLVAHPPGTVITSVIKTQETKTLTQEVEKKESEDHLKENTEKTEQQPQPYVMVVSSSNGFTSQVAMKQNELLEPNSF

[2] = target: T2, ELK4 (UniProt P28324-2)
T2 sequence: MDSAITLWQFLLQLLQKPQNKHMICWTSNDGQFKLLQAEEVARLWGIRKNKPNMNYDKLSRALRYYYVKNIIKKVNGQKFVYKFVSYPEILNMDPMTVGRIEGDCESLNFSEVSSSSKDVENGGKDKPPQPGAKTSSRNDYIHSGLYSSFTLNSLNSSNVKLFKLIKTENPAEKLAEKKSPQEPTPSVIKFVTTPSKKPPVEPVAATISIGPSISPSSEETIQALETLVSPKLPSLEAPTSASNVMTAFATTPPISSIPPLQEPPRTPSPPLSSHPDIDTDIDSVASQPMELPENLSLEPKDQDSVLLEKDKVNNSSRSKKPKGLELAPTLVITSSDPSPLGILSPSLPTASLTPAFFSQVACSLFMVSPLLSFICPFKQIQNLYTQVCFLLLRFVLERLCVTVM

[3] = target: T3, ETV4 (UniProt P43268)
T3 sequence: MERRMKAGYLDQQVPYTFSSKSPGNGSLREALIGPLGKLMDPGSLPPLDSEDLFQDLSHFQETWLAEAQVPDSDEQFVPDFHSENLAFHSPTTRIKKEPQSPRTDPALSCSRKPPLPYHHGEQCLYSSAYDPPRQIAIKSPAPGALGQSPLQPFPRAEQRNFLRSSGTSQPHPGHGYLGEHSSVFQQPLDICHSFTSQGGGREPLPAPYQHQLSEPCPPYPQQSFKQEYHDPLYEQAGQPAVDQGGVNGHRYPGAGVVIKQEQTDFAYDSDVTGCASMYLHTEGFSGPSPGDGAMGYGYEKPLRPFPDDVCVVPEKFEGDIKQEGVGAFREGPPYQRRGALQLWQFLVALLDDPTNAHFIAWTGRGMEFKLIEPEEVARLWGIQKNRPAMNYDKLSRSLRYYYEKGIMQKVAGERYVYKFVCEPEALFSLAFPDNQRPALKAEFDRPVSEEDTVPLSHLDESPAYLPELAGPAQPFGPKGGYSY

[4] = target: ETV1 (UniProt P50549)
[5] = target: T4, ERF (UniProt P50548)
T4 sequence: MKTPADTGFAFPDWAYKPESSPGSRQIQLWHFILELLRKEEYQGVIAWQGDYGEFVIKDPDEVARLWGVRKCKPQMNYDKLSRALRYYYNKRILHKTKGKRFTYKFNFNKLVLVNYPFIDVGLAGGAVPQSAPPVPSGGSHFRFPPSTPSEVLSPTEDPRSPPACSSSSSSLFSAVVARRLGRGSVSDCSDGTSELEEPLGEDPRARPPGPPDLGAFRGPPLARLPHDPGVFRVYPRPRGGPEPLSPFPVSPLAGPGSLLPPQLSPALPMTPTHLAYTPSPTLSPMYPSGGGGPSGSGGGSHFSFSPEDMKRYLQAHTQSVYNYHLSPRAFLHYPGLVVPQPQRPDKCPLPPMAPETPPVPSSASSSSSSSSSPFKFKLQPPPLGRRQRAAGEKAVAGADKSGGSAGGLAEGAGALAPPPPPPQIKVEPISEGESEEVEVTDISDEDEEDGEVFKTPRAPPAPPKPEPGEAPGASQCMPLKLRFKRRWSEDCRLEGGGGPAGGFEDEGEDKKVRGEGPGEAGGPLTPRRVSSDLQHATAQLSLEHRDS

[6] = target: ELF1 (UniProt P32519)

Sequence | binding signal [1] | binding signal [2] | binding signal [3] | binding signal [4] | binding signal [5] | binding signal [6]
TAGGCA | 1.06 | 0.967 | 1.01 | 0.964 | 0.968 | –
ACCCGT | 0.908 | 0.895 | 0.967 | 0.907 | 0.942 | 0.883
TAATAC | 1.09 | 1.04 | 1.13 | 1.11 | 1.14 | –
TGTCAT | 1.11 | 1.08 | 1.15 | 1.18 | – | –
CGGTTA | 0.992 | 0.924 | 0.951 | 0.955 | 0.931 | –
CCACGT | 0.945 | 1.01 | 1.02 | 1.01 | – | –
GCTTAA | 0.944 | 0.981 | 1.02 | 0.953 | – | –
GAATGA | 0.953 | 0.958 | 0.962 | 0.883 | 0.883 | –
ACAAAG | 0.946 | 0.976 | 0.948 | 0.973 | – | –
GCAGCA | 0.94 | 0.887 | 0.904 | 0.928 | 0.985 | –
GCCGAA | 0.955 | 0.97 | 0.967 | 0.976 | – | –
CACAAC | 1.25 | 1.25 | 1.26 | 1.2 | 1.36 | –
AATGTG | 0.988 | 0.927 | 0.99 | 0.997 | 1.01 | –
TGATAG | 0.993 | 1.02 | 0.947 | 0.95 | 1.04 | –
GACACT | 0.986 | 1.05 | 1.09 | 0.971 | 0.922 | –
GCCACA | 0.998 | 0.95 | 0.903 | 1.08 | 0.99 | –
TGATTC | 1.08 | 0.996 | 1.2 | 1.18 | – | –
TGGTCG | 0.99 | 0.96 | 0.925 | 0.989 | 0.999 | –
ACGATG | 1.13 | 0.976 | 1.07 | 1.12 | 1.09 | –

Sequence | binding signal [1] | binding signal [2] | binding signal [3] | binding signal [4] | binding signal [5] | binding signal [6]
TAGAAC | 0.971 | 0.99 | 1.04 | 1.07 | – | –
GTTATA | 0.962 | 0.945 | 1.02 | 0.979 | – | –
GTGTCC | 1.13 | 0.897 | 1.09 | 1.02 | – | –
TCGCGT | 0.933 | 1.06 | 0.919 | 0.898 | 0.924 | –
GATCAC | 0.954 | 0.937 | 0.984 | 0.952 | 0.994 | –
GTCCAA | 0.908 | 0.947 | 0.934 | 0.908 | 0.889 | –
ATGTAG | 1.01 | 1.15 | 1.04 | 0.939 | 1.14 | –
GCCAAC | 0.969 | 0.893 | 0.9 | 0.878 | – | –
GGCTTT | 0.994 | 0.992 | 1.05 | 0.934 | 0.956 | –
GGTTAC | 0.964 | 0.995 | 0.965 | 0.977 | 0.991 | –
GCGTTG | 0.891 | 0.994 | 0.853 | 0.93 | – | –
CACCTA | 0.978 | 1 | 1.09 | 0.979 | – | –
CTAGAC | 0.945 | 0.93 | 0.963 | 0.943 | 0.959 | –
CCTGAA | 1.41 | 1.41 | 1.39 | 1.38 | – | –
CTGGTG | 0.965 | 0.881 | 1.01 | 0.919 | – | –
AACAAC | 1.29 | 1.27 | 1.31 | 1.23 | – | –
TGAGCT | 0.979 | 1.17 | 1.14 | 1.09 | – | –
ACCGGT | 0.967 | 0.915 | 0.927 | 0.932 | 0.907 | 0.913

Another view of some results above:

| Sequence | binding signal [1] | binding signal [2] | binding signal [3] | binding signal [4] | binding signal [5] | binding signal [6] |
| --- | --- | --- | --- | --- | --- | --- |
| AACAAC | 1.29 | 1.27 | 1.31 | 1.23 | – | – |
| TGAGCT | 0.979 | 1.17 | 1.14 | 1.09 | – | – |

From paper PMC7862700
